# Laboratory results as given in the supplement of paper PMC8728848.
# Some of the results follow.
# B1: Mnn9-2N3 (Aspergillus fumigatus) (protein)
# chain: MAVARRMRRTNPITLLLAAILAIGFFIFVLSPSTTSASPVKAGSASSSSTSQQRREDNAAENPLSPPTKPFFKSQPVRHDGQQAPPPVVQYNLNQLSSTSTSAANGERILILTPMARFVPEYWDNVVKLTYPHELISIGFIIPKNKEGNAALAALEAAIAKTQSGPIDKRFASISILRQDFEPPLQSQDEKERHKISNQKARRESMSRARNSLLFTTLGPATAWVLWLDADIVETPPTLIQDLTAHDHPVLVPNCYQRYYNSEKKKMDVRPYDYNSWIDSSTAQSMAAEMGPDEILLEGYAEMPTYRTLMAHLADTANPNPKKVIELDGVGGTALMVKAEVHRDGAMFPAFPFYHLVETEGFAKMAKRLGYSVYGLPDYFVSRNFFFFFFFFFFG
# Experiments:
# Test in all cases: glycan array binding signal (z-score within array); higher = stronger binding
# Conditions in all cases: glycan notation: IUPAC condensed, linker removed
# [1] = molecular target: Gal(b1-4)GlcNAc(b1-2)Man(a1-6)[Man(a1-3)]Man(b1-4)GlcNAc(b1-4)GlcNAc
# Outline: (§1)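 The Consortium for Functional Glycomics database supplied 3228 glycan arrays, of which those lacking an available protein sequence were dropped. The binding signal, a within-array Z-score, was averaged across arrays of the same protein sequence and across linkers. Negative scores can be read as non-binding.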
# [2] = molecular target: Gal(b1-4)GlcNAc(b1-2)[Gal(b1-4)GlcNAc(b1-4)]Man(a1-3)[Gal(b1-4)GlcNAc(b1-2)Man(a1-6)]Man(b1-4)GlcNAc(b1-4)GlcNAc
# Outline: as §1
# [3] = molecular target: Gal(b1-4)GlcNAc(b1-2)[Gal(b1-4)GlcNAc(b1-4)]Man(a1-3)[Gal(b1-4)GlcNAc(b1-2)[Gal(b1-4)GlcNAc(b1-6)]Man(a1-6)]Man(b1-4)GlcNAc(b1-4)GlcNAc
# Outline: as §1
# [4] = molecular target: Gal(b1-4)GlcNAc(b1-2)[Gal(b1-4)GlcNAc(b1-4)]Man(a1-3)[GlcNAc(b1-4)][Gal(b1-4)GlcNAc(b1-2)Man(a1-6)]Man(b1-4)GlcNAc(b1-4)GlcNAc
# Outline: as §1
# [5] = molecular target: Gal(b1-4)GlcNAc(b1-2)[Gal(b1-4)GlcNAc(b1-4)]Man(a1-3)[GlcNAc(b1-4)][Gal(b1-4)GlcNAc(b1-2)[Gal(b1-4)GlcNAc(b1-6)]Man(a1-6)]Man(b1-4)GlcNAc(b1-4)GlcNAc
# Outline: as §1
# [6] = molecular target: Gal(b1-4)GlcNAc(b1-2)[Gal(b1-4)GlcNAc(b1-6)]Man(a1-6)[Gal(b1-4)GlcNAc(b1-2)Man(a1-3)]Man(b1-4)GlcNAc(b1-4)GlcNAc
# Outline: as §1
# [7] = molecular target: Gal(b1-4)GlcNAc(b1-2)[Gal(b1-4)GlcNAc(b1-6)]Man(a1-6)[Gal(b1-4)GlcNAc(b1-2)Man(a1-3)]Man(b1-4)GlcNAc(b1-4)[Fuc(a1-6)]GlcNAc
# Outline: as §1
# [8] = molecular target: Gal(b1-4)GlcNAc(b1-2)[Gal(b1-4)GlcNAc(b1-6)]Man(a1-6)[GlcNAc(b1-4)][Gal(b1-4)GlcNAc(b1-2)Man(a1-3)]Man(b1-4)GlcNAc(b1-4)GlcNAc
# Outline: as §1
# [9] = molecular target: Gal(b1-4)GlcNAc(b1-2)[Gal(b1-4)GlcNAc(b1-6)]Man(a1-6)[GlcNAc(b1-4)][Gal(b1-4)GlcNAc(b1-2)[Gal(b1-4)GlcNAc(b1-4)]Man(a1-3)]Man(b1-4)GlcNAc(b1-4)[Fuc(a1-6)]GlcNAc
# Outline: as §1
# [10] = molecular target: Gal(b1-4)GlcNAc(b1-3)Gal(b1-3)GalNAc
# Outline: as §1
# [11] = molecular target: Gal(b1-4)GlcNAc(b1-3)Gal(b1-3)GlcNAc
# Outline: as §1
# [12] = molecular target: Gal(b1-4)GlcNAc(b1-3)Gal(b1-4)Glc
# Outline: as §1
# [13] = molecular target: Gal(b1-4)GlcNAc(b1-3)Gal(b1-4)GlcNAc
# Outline: as §1
# [14] = molecular target: Gal(b1-4)GlcNAc(b1-3)Gal(b1-4)GlcNAc(b1-2)Man(a1-3)[Gal(b1-4)GlcNAc(b1-3)Gal(b1-4)GlcNAc(b1-2)Man(a1-6)]Man(b1-4)GlcNAc(b1-4)GlcNAc
# Outline: as §1
# [15] = molecular target: Gal(b1-4)GlcNAc(b1-3)Gal(b1-4)GlcNAc(b1-2)Man(a1-3)[Gal(b1-4)GlcNAc(b1-3)Gal(b1-4)GlcNAc(b1-2)Man(a1-6)]Man(b1-4)GlcNAc(b1-4)[Fuc(a1-6)]GlcNAc
# Outline: as §1
# [16] = molecular target: Gal(b1-4)GlcNAc(b1-3)Gal(b1-4)GlcNAc(b1-2)[Gal(b1-4)GlcNAc(b1-3)Gal(b1-4)GlcNAc(b1-6)]Man(a1-6)[Gal(b1-4)GlcNAc(b1-3)Gal(b1-4)GlcNAc(b1-2)Man(a1-3)]Man(b1-4)GlcNAc(b1-4)GlcNAc
# Outline: as §1
# [17] = molecular target: Gal(b1-4)GlcNAc(b1-3)Gal(b1-4)GlcNAc(b1-2)[Gal(b1-4)GlcNAc(b1-3)Gal(b1-4)GlcNAc(b1-6)]Man(a1-6)[Gal(b1-4)GlcNAc(b1-3)Gal(b1-4)GlcNAc(b1-2)Man(a1-3)]Man(b1-4)GlcNAc(b1-4)[Fuc(a1-6)]GlcNAc
# Outline: as §1
# [18] = molecular target: Gal(b1-4)GlcNAc(b1-3)Gal(b1-4)GlcNAc(b1-3)Gal(b1-4)GlcNAc
# Outline: as §1
binder,measurement,setting,value
B1,glycan array binding signal (z-score),[1],-0.499
same,glycan array binding signal (z-score),[2],-0.102
same,glycan array binding signal (z-score),[3],-0.516
same,glycan array binding signal (z-score),[4],-0.269
same,glycan array binding signal (z-score),[5],-0.475
same,glycan array binding signal (z-score),[6],-0.721
same,glycan array binding signal (z-score),[7],0.615
same,glycan array binding signal (z-score),[8],-0.259
same,glycan array binding signal (z-score),[9],0.01
same,glycan array binding signal (z-score),[10],-0.539
same,glycan array binding signal (z-score),[11],-0.537
same,glycan array binding signal (z-score),[12],-0.212
same,glycan array binding signal (z-score),[13],-0.099
same,glycan array binding signal (z-score),[14],3.03
same,glycan array binding signal (z-score),[15],-1.26
same,glycan array binding signal (z-score),[16],-0.06
same,glycan array binding signal (z-score),[17],0.596
same,glycan array binding signal (z-score),[18],0.004

# No new results follow: entries from further up.
binder,measurement,setting,value
B1,glycan array binding signal (z-score),[7],0.615
same,glycan array binding signal (z-score),[8],-0.259
